This is an account of results in article PMC8614874.

Protein sequences, listed by entry. Tags and fused reporters are not part of them. Lines headed by an entry give the natural chain unless they say otherwise; changes in a name come on top. Chains listed by the source or under a name are the forms on record and can include a tag or linker.
UniProt P02452: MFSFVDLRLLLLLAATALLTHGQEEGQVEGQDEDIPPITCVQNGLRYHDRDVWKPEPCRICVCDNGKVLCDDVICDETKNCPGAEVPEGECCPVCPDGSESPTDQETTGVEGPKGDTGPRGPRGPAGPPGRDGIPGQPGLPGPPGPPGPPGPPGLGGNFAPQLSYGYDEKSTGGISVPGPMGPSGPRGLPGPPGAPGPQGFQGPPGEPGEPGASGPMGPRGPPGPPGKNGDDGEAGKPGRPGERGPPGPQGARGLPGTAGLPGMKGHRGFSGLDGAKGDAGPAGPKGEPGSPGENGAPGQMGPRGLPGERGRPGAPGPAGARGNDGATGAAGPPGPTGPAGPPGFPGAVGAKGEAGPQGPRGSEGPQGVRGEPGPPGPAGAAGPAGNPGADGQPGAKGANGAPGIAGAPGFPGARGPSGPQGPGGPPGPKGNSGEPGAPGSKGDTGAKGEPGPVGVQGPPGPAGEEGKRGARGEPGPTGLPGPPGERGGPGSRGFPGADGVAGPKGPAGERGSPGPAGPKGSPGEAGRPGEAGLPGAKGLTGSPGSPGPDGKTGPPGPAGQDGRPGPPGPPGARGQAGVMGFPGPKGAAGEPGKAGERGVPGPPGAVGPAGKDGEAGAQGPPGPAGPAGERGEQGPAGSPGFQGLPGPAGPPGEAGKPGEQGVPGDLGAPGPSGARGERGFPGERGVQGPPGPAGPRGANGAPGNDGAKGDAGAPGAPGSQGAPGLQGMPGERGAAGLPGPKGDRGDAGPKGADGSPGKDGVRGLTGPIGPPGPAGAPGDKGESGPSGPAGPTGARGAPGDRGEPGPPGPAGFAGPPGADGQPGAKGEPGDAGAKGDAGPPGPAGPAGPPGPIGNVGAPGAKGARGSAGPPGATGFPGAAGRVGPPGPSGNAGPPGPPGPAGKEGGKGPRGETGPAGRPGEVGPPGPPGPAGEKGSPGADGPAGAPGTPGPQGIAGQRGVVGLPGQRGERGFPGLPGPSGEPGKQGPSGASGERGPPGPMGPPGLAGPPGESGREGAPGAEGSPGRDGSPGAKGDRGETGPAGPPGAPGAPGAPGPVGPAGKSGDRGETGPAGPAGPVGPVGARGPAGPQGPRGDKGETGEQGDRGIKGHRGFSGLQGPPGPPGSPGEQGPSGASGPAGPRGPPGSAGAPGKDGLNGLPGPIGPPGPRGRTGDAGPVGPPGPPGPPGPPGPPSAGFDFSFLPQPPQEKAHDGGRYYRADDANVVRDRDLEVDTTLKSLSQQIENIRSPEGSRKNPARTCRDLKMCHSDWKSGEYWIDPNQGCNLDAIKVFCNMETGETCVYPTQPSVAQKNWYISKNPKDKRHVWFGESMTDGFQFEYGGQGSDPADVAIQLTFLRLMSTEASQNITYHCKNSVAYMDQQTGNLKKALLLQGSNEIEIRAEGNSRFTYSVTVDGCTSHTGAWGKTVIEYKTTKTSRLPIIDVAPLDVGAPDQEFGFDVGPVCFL
UniProt P08123: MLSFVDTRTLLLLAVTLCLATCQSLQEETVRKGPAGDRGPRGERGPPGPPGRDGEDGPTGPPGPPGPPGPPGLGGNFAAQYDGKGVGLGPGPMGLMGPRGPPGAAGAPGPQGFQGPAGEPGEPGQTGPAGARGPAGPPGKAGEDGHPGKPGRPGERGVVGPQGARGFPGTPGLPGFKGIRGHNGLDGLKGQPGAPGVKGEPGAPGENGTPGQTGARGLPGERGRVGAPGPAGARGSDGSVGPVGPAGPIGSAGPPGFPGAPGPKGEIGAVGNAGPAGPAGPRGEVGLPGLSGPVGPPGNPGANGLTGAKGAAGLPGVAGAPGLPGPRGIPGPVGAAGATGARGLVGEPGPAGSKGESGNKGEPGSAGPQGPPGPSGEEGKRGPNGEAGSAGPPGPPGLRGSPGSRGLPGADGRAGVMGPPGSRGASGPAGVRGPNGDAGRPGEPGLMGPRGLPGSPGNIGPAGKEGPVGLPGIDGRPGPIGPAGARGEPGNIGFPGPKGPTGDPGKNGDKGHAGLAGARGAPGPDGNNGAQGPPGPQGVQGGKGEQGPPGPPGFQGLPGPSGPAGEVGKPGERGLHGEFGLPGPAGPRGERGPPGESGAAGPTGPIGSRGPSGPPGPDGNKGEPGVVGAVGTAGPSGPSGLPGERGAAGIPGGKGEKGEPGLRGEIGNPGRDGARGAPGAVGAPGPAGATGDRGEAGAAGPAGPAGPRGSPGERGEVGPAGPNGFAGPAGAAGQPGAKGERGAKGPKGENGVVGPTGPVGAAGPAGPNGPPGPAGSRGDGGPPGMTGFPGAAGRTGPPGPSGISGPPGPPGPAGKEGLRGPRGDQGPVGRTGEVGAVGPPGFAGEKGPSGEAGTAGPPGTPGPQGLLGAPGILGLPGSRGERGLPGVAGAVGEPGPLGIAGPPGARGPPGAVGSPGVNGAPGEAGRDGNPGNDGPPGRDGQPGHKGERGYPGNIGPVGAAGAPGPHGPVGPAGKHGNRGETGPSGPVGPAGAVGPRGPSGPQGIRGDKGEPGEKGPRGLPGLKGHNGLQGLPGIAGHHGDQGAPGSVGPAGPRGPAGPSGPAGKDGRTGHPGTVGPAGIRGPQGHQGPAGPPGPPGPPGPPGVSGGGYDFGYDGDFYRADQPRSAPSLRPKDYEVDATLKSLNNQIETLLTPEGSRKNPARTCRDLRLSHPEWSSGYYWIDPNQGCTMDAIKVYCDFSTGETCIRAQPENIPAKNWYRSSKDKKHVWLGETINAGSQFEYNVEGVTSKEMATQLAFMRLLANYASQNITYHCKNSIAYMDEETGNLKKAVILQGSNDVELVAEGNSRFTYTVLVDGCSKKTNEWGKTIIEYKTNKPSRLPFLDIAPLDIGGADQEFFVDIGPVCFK
UniProt P61769: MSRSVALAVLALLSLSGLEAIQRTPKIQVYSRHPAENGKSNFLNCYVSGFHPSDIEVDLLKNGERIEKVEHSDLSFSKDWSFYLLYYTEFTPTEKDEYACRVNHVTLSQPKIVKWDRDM
D76N β2-microglobulin variant (P61769, form named): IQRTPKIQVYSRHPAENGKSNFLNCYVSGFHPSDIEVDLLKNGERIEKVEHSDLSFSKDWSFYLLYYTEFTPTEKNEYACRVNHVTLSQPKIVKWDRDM
K41S β2-microglobulin mutant (P61769, form named): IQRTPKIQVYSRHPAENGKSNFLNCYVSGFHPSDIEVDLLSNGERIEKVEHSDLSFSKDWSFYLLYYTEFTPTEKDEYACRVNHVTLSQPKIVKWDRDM
D38N β2-microglobulin mutant (P61769, form named): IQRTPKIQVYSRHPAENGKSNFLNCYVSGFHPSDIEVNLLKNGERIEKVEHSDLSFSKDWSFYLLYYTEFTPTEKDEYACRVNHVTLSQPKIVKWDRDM

Assay in all cases: ELISA; ECM protein coated on microtiter wells (10 µg/mL in DPBS, 1 h), blocked with 5% BSA in DPBS with 0.05% Tween 20; β2m variants added in dilution series (0, 2.5, 5, 10 µg/mL), 1 h; detected with mouse anti-human β2m and goat anti-mouse-HRP, absorbance at 450 nm; both purified
Background: In an ELISA, binding on a coated surface is turned into a signal by an enzyme label.

For experiment [1], the target named is collagen I from human placenta (human) (UniProt P02452+P08123).
Experiment [2] addresses T1, fibromodulin (UniProt Q06828).
T1 sequence: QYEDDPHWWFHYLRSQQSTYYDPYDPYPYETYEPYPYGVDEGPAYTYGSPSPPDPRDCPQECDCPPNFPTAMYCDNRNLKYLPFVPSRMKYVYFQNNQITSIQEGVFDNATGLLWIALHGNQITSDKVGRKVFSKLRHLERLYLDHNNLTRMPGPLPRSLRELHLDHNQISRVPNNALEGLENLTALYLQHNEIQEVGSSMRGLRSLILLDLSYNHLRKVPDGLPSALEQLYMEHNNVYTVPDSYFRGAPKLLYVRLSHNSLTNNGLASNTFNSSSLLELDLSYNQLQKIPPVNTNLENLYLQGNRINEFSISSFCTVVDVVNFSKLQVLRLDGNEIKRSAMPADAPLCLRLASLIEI

Experiment [3] concerns the target T2, osteoadherin (UniProt Q99983).
T2 sequence: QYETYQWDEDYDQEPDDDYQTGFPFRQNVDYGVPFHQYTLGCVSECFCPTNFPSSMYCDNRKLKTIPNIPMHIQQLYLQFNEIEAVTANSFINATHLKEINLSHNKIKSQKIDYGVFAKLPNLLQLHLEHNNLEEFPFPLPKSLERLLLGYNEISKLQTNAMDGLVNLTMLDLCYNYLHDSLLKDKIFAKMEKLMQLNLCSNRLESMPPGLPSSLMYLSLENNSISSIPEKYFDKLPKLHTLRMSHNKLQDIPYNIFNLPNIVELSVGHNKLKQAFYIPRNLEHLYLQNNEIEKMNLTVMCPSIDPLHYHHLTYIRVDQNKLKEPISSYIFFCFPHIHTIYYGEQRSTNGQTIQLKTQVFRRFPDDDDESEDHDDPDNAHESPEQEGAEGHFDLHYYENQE

No constants are given. Whether binding was seen depends on the method and setting. Some entries that bind do so weakly or less than the wild type.

As to “D76N β2-microglobulin variant (from UniProt P61769 21-119)”, the binding result in experiment [1], in experiment [2] and in experiment [3] was “binds” each time.
Consider “K41S β2-microglobulin mutant (from UniProt P61769 21-119)”, for which the binding entry in experiment [1], in experiment [2] and in experiment [3] was “binds” each time.
As for “wild-type β2-microglobulin (from UniProt P61769 21-119)”, the binding result in experiment [1] was “binds weakly”; in experiment [2] it was “binds”; in experiment [3] it was “binds”.
Take “D38N β2-microglobulin mutant (from UniProt P61769 21-119)”: the binding result in experiment [1], in experiment [2] and in experiment [3] was “binds” in each case.
